The structures appear in SMILES notation. The structures given here were assigned with low confidence; some may be wrong.

Sequences of proteins named here, by UniProt entry; tags and fusion partners are left off. Residues count along the entry.
UniProt P62593, 24-286 limits assumed: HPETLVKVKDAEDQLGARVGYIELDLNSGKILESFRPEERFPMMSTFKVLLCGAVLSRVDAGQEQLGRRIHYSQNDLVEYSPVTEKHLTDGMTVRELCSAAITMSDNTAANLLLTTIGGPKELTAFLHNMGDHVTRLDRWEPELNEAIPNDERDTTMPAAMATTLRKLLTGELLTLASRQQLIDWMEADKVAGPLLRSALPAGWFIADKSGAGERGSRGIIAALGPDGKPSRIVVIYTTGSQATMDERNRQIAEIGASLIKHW

Data set [1] concerns ALP. Briefly: Solution-phase enzymatic response of probe to ALP (absorption, fluorescence, HPLC). To be noted: probe 10 µM. Here is the method: The absorption spectra of probes were measured using a UV-Vis spectrophotometer over a wavelength range of 400 to 800 nm. The fluorescence spectra were measured using a fluorescence spectrometer with an excitation wavelength of 687 nm, excitation and emission slit widths of 3 nm, and an emission scanning range of 697 to 850 nm. The temporal changes in fluorescence intensity were measured using a microplate reader (SpectraMax i3). Measurements were performed in a 96-well plate with a default total volume of 100 µL per well, an excitation wavelength of 687 nm, an emission wavelength of 714 nm, and excitation and emission slit widths of 15 nm. The PMT was set to the default value of the microplate reader, with 10 flashes per read. Unless otherwise specified, all fluorescence and absorption measurements were carried out in PBS (1×, pH 7.4) containing 0.1% CHAPS (surfactant; 3-[(3-cholamidopropyl)dimethylammonio]-1-propanesulfonate). […]
Following incubation of probe ALPIN-6 (10 µM) with ALP (2 U/mL) in PBS in a water bath at 37°C for 30 minutes, the reaction mixture was centrifuged at 12,000 r/min for 10 minutes using a 10 kDa ultrafiltration membrane to remove proteins. A 100 µL aliquot of the filtrate was analyzed by HPLC at a wavelength of 600 nm.

The test system of data set [2] is mixed HeLa and HEK293 cells. Briefly: Specific imaging of mixed HeLa and HEK293 cells. To be noted: 1 µM, 37°C, 20 minutes. The procedure: Experimental conditions: Cultured HeLa and HEK293 cells (stably expressing green fluorescent protein) were seeded in a confocal dish, and 1 µM of the fluorescent probe ALPIN-6 was added to the mixed cells, followed by incubation at 37°C for 20 minutes. Fluorescence imaging was then performed using a fluorescence microscope.

The subject of data set [3] is HeLa cells overexpressing alkaline phosphatase (ALP). Briefly: Confocal fluorescence imaging of HeLa cells with ALPIN-6, ALPIN-5, ALPIN-4. To be noted: 1 µM. Here is the method: Experimental conditions: 1 µM of the fluorescent probes ALPIN-6, ALPIN-5, and ALPIN-4 were incubated separately with HeLa cells overexpressing ALP on the cell surface and normal HEK293 cells with low ALP expression in a culture dish at 37°C for 30 minutes. Alternatively, HeLa cells were pre-treated with the alkaline phosphatase inhibitor Na3VO4 for 1 hour, followed by incubation with the probes for 30 minutes. After incubation, the probe-containing culture medium was discarded, and the cells were washed once with PBS (pH = 7.4). Subsequently, 1 mL of phenol red-free DMEM was added, and fluorescence imaging was performed using a confocal fluorescence microscope (Cy 5.5 channel).

Another data set relates to HeLa tumor. Briefly: Real-time in vivo fluorescence imaging of HeLa tumor-bearing mice (ALPIN-6). To be noted: for Fluorescence intensity at different time points: 200 µL of 40 µM in PBS, tail vein. The procedure: Establishment of HeLa tumor xenograft model in nude mice: • (1) Preparation of HeLa cells: Cells were cultured and passaged as described above. The cultured cells were centrifuged following digestion, and washed twice with PBS (1 mL per wash). After centrifugation and removal of the supernatant, the cells were resuspended in FBS-free DMEM, counted, mixed with Matrigel, and placed in an ice bath for later use. • (2) Inoculation of HeLa cells into tumor-bearing nude mice: Female BALB/c nude mice aged 4 to 6 weeks were subcutaneously inoculated in the right hind limb with 200 µL of a mixture containing HeLa cells (4 × 10^6) in DMEM (without FBS) and Matrigel (1:4), using a 1 mL sterile medical syringe. The mice were maintained at 25°C for 2 to 3 weeks with free access to water and food. When the tumor volume reached approximately 0.1 cm^3, animal imaging experiments were performed. • (3) In vivo imaging of HeLa tumor-bearing nude mice using probes via tail vein injection: The experimental mice were first divided into three groups with three mice per group. Whole-body background fluorescence images were acquired from six nude mice using an IVIS Lumina XRMS Series III in vivo imaging system (λex = 660 nm, λem = 710 nm). The fluorescent probe ALPIN-6 or ALPIN-4 was then prepared as a 40 µM solution in PBS. Each tumor-bearing mouse received 200 µL of the prepared probe solution via tail vein injection using an insulin syringe. Subsequently, whole-body fluorescence data from the experimental mice were collected using the in vivo imaging system at multiple time points (1 h, 2 h, 3 h, 4 h, 6 h, 8 h, 24 h, and 36 h). For the inhibitor group, 50 µL of 10 mM Na3VO4 solution was first injected intratumorally, and 30 minutes later, ALPIN-6 was administered at the same concentration, followed by imaging at the same time points. • (4) Ex vivo imaging of tissues from HeLa tumor-bearing nude mice: In the tail vein injection group, at 36 hours post-injection, the nude mice were sacrificed by cervical dislocation. The tumors, heart, lungs, liver, spleen, and kidneys were harvested and subjected to fluorescence imaging.

The test system of data set [4] is ALP. Briefly: Gel imaging of covalent protein labeling (SDS-PAGE, near-infrared scan). The settings on record: probe 10 µM, ALP 8 µM, BSA 5 µM, 37°C, 2 hours. The procedure: According to experimental requirements, gel electrophoresis samples with a total volume of 25 µL were prepared as follows: Fluorescent probe ALPIN-6 or ALPIN-5 (10 µM) was incubated with different protein samples (ALP, 8 µM; BSA, 5 µM) at 37°C for 2 hours. Subsequently, 2 µL of gel electrophoresis loading buffer (5×) was added and mixed well for later use. An 8% polyacrylamide gel was prepared according to the Beyotime kit instructions, and 20 µL of each sample was loaded into individual wells. SDS-PAGE electrophoresis was carried out at 120 V for 2 to 3 hours. Following electrophoresis, the resulting gel was scanned using an Odyssey CLx Image Studio dual-color near-infrared imaging system (λex/em = 685 nm/720 nm). The resulting fluorescence images were analyzed for fluorescent protein bands. Subsequently, the protein gel was stained with Coomassie Brilliant Blue solution for 30 minutes on a shaker to visualize protein bands. Excess dye was then removed using Coomassie Brilliant Blue destaining solution (ethanol/acetic acid/water = 1:2:7), and the gel was photographed using a mobile phone.

For a further data set, the system named is HeLa cells. In words: Real-time confocal imaging of HeLa cells with ALPIN-6. The settings on record: 0.1 µM, at 20 minutes. The procedure: Experimental conditions: Cultured HeLa cells were seeded in a confocal dish, and 0.1 µM of the fluorescent probe ALPIN-6 was added to the HeLa cells. Time-dependent fluorescence imaging was performed using a confocal fluorescence microscope (Cy 5.5 channel).

The next data set addresses β-lactamase TEM-1 (Escherichia coli, UniProt P62593). In words: SDS-PAGE and dual-color near-infrared fluorescence scanning (protein labeling). The settings on record: 10 µM, TEM-1 5 µM, BSA 10 µM. Here is the method:
Experimental conditions: A 12% SDS-PAGE resolving gel and a 5% stacking gel were prepared. The probes and photosensitizers were prepared as 10 µM working solutions in PBS (pH = 7.4) and incubated with different proteins at 37°C for 2 hours. The concentrations of β-lactamase TEM-1 and BSA were 5 µM and 10 µM, respectively. For the inhibitor group, the inhibitor avibactam (1 mM) was pre-incubated with TEM-1 for 30 minutes before co-incubation with the probe. Subsequently, SDS-PAGE loading buffer was added to the samples and mixed thoroughly. Each sample (15 µL) was loaded onto the gel and subjected to electrophoresis. Upon completion, fluorescent bands were obtained using dual-color near-infrared fluorescence scanning. Finally, the gel was stained with Coomassie Brilliant Blue and photographed using a gel imaging system.

A short description of data set [5]: In vivo safety (blood routine, blood biochemistry, H&E staining). The settings on record: 1 µmol/kg tail vein, 24 hours after injection. The procedure: Experimental conditions: The in vivo safety of probes was evaluated by analyzing blood routine parameters, blood biochemical indicators, and histological staining. Female BALB/c mice aged 4 to 6 weeks were obtained from the Shanghai Laboratory Animal Research Center. The mice were housed at 25°C with free access to food and water. For histological analysis, the mice were divided into three groups with three mice per group, and administered normal saline, the primary probe BIN-3, and the control probe BIN-2 (1 µmol/kg) via tail vein injection. Twenty-four hours after injection of normal saline or probes, the mice were euthanized and dissected. Tissue sections were prepared from the organs (heart, lungs, liver, spleen, and kidneys) and subjected to hematoxylin and eosin (H&E) staining. For hematological analysis, the mice were divided into three groups with three mice per group, and administered normal saline, BIN-3, and BIN-2 (1 µmol/kg) via tail vein injection. Twenty-four hours after injection, blood samples were collected from the mice in each group and submitted for blood routine analysis.

Take `CCC[N+]1=C(/C=C/C2=C3Oc4cc(OCc5ccc(OP(=O)(O)O)cc5)c(COC(=O)NCc5cn(CC[N+](C)(C)CCCS(=O)(=O)O)nn5)cc4C=C3CCC2)C(C)(C)c2ccccc21`: the “absorption and fluorescence change after reaction with ALP” value in the data set with ALP [1] (ALP 2 U/mL, PBS pH 7.4 with 0.1% CHAPS, 37°C, 30 minutes) is “a red-shift in absorption and an enhancement in fluorescence intensity”. In the data set on ALP [1] (PBS pH 7.4), the “specificity of fluorescence response” value was “can specifically respond to ALP”. Also, the “specific imaging in mixed cells” value in data set [2] is “enables specific imaging of the ALP-overexpressing HeLa cells”. In addition, in data set [3] (37°C, 30 minutes, compared with ALPIN-5 and ALPIN-4), the “fluorescence imaging of cells” value is “more pronounced fluorescence imaging of ALP-overexpressing cells”. Moreover, the “fluorescence labeling of HeLa cells in the ALP inhibitor group” value in data set [3] (HeLa cells pre-treated with Na3VO4 for 1 hour) was “reduced”. The “Fluorescence intensity at different time points” value is on record as 1.65 ± 0.37 × 10^8 with HeLa tumor (0 (h)); 6.78 ± 1.13 × 10^8 with HeLa tumor (1 (h)); 5.78 ± 0.50 × 10^8 with HeLa tumor (2 (h)); 5.79 ± 0.55 × 10^8 in the data set with HeLa tumor (3 (h)); 5.64 ± 0.31 × 10^8 in the data set on HeLa tumor (4 (h)); 5.65 ± 0.39 × 10^8 in the data set on HeLa tumor (6 (h)). Also, the “Fluorescence intensity at different time points” value with HeLa tumor (8 (h)) was 4.98 ± 0.72 × 10^8; in the data set with HeLa tumor (24 (h)), 5.89 ± 0.42 × 10^8; with HeLa tumor (36 (h)), 5.25 ± 0.34 × 10^8. Besides, the “time up to which significant tumor-associated fluorescence remained detectable” value with HeLa tumor (intravenous administration) is “up to 36 hours”. Also, the “protein-labeling performance following enzymatic activation” value in the data set on ALP [4] is listed as “the strongest protein-labeling performance”. The “fluorescence intensity associated with the cells relative to background fluorescence” value in the data set on HeLa cells was “more than 2000 fold”.
`C[N+]1=C(/C=C/C2=C3Oc4cc(OCC5=C(C(=O)O)N6C(=O)[C@@H](NC(=O)CCc7cn(C(CC(=O)O)C(=O)O)nn7)[C@H]6SC5)ccc4C=C3CCC2)C(C)(C)c2cc(I)ccc21` (stereo partly drawn): the “labeling of BSA protein after activation by TEM-1” value at β-lactamase TEM-1 was “did not exhibit any protein-labeling capability”.
As for `CCC[N+]1=C(/C=C/C2=C3Oc4cc(OCC5=C(C(=O)O)N6C(=O)[C@@H](NC(=O)CCc7cn(CC[N+](C)(C)CCCS(=O)(=O)O)nn7)[C@H]6SC5)c(COC(=O)NCC)cc4C=C3CCC2)C(C)(C)c2ccccc21`, the “blood routine, blood biochemical indicators and H&E staining of major organs versus normal saline” value in data set [5] is listed as “no significant differences were observed”.
Turning to `CCC[N+]1=C(/C=C/C2=C3Oc4cc(OCC5=C(C(=O)O)N6C(=O)[C@@H](NC(=O)CCc7cn(CC[N+](C)(C)CCCS(=O)(=O)O)nn7)[C@H]6SC5)ccc4C=C3CCC2)C(C)(C)c2ccccc21`, the “labeling of BSA protein after activation by TEM-1” value at β-lactamase TEM-1 is “did not exhibit any protein-labeling capability”. Further, in data set [5], the “blood routine, blood biochemical indicators and H&E staining of major organs versus normal saline” value is “no significant differences were observed”.

The values above are taken from patent EP4825863A1, “DESIGN, PREPARATION AND APPLICATION OF TARGETED ACTIVATION ENRICHMENT TYPE NEAR-INFRARED PROBE AND PHOTOSENSITIZER” (dated 2026).
